According to patent US7390411B2, “Method for preparing a compound of interaction of active substances with a porous support using supercritical fluid” (Pierre Fabre Medicament, priority 2001, dated 2008):
For at least one compound, name, drawing or mass did not settle the structure.

Assay: Dissolution test omeprazole powders (UV 296 nm)
Type: physicochemical
Conditions: water, 37° C.

COc1ccc2[nH]c([S+]([O-])Cc3ncc(C)c(OC)c3C)nc2c1 (stereo not shown) [Omeprazole]
concentration after 2 hours of dissolution, Active principle alone: 91 µg/mL
